This is an account of results in paper PMC7862700.

The list shows a part of the results, in another mix than the full data. At the low end of the ranking the order means little.

Assay in all cases: DAPPL (digital affinity profiling via proximity ligation, sequencing)
Details in all cases: 10 mM Tris-HCl pH 7.5, 50 mM NaCl, 1 mM DTT, 4% glycerol, room temperature, 30 min; GST-TFs on glutathione beads, 16-mer random dsDNA library, 0.1% …; high values mean tight binding; double strand, one strand shown; scale: fold enrichment (6-mer frequency, TF over GST control)

The target of one assay is T1, ELK1 (UniProt P19419).
T1 sequence: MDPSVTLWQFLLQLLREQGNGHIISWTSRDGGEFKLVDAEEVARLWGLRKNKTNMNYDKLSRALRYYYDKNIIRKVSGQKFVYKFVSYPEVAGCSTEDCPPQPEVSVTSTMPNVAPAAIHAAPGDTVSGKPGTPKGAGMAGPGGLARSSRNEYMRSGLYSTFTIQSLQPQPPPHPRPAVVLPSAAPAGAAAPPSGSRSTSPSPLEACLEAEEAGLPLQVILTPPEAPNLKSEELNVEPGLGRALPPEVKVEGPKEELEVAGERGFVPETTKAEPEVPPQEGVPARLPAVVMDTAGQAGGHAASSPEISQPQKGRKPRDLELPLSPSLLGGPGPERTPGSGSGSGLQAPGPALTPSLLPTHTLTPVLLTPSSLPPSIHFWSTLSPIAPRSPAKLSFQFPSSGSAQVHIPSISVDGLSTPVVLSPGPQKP

In another assay the target is T2, SPIC (UniProt Q8N5J4).
T2 sequence: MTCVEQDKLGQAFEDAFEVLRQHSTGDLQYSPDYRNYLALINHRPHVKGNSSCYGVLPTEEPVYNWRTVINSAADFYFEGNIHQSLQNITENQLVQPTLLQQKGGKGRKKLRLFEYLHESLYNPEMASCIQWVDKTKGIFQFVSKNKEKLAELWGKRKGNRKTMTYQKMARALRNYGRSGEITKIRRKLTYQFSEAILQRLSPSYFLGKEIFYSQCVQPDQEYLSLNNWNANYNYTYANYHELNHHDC

In the next assay the target is T3, ETS2 (UniProt P15036).
T3 sequence: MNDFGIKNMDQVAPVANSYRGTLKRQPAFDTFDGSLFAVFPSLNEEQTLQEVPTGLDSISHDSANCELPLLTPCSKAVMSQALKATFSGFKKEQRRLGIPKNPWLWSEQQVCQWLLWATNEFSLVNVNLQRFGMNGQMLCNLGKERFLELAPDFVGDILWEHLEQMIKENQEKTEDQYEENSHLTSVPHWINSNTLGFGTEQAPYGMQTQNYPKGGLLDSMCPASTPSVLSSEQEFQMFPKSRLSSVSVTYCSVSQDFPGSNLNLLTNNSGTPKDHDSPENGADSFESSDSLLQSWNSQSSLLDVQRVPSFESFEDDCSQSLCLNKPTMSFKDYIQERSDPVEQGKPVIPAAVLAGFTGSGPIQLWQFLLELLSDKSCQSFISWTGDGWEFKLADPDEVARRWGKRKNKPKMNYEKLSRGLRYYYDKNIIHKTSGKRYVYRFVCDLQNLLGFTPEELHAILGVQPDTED

The target in the next assay is T4, ETV3 (UniProt P41162-2).
T4 sequence: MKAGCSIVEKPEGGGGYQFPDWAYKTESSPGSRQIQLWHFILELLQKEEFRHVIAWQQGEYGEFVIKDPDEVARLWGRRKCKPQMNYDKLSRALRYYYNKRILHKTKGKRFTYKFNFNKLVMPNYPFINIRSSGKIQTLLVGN

Another assay concerns the target T5, ELK3 (UniProt P41970).
T5 sequence: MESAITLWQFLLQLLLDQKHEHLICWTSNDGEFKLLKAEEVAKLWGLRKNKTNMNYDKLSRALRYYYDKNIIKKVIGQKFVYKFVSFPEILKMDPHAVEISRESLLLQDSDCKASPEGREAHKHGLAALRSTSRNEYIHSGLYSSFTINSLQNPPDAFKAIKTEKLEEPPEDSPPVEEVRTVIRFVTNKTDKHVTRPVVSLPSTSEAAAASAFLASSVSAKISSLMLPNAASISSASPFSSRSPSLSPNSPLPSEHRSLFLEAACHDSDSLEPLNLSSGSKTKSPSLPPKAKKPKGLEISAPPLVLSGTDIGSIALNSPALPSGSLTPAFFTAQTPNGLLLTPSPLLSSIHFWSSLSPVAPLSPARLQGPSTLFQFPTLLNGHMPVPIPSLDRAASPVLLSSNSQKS

For GCGCCG, the binding signal in the assay with ELK1 amounted to 0.952; with SPIC, 1.1; with ETS2 it was 0.969; in the assay with ETV3, 0.96.

Turning to TAGTGT, the binding signal with ELK1 was determined as 1.16; with SPIC it was 0.969; with ETS2, 1.11; with ETV3, 1.13.

As for GCGCAC, the binding signal with ELK1 amounted to 0.925; in the assay with ELK3, 0.939; with SPIC, 0.861; in the assay with ETS2 it was 0.911; with ETV3, 0.838.

With CCAGCT, the binding signal in the assay with ELK1 was determined as 0.945; with SPIC it was 0.952; with ETS2 it was 0.987; with ETV3 it was 1.

Consider CGCACC, for which the binding signal with ELK1 came out at 0.957; in the assay with SPIC, 0.912; with ETS2, 0.965; in the assay with ETV3, 0.955.

As to ACAAGG, the binding signal with ELK1 was found to be 0.961; in the assay with SPIC, 0.989; with ETS2, 0.946; in the assay with ETV3, 0.961.

As for CAAAGT, the binding signal with ELK1 was determined as 0.989; in the assay with SPIC it was 0.787; in the assay with ETS2, 0.977; with ETV3, 0.945.

With GCCTAC, the binding signal came out at 1.17 with ELK1, 1.37 with SPIC, 1.23 in the assay with ETS2 and 1.3 with ETV3.

In the case of CGTCCA, the binding signal in the assay with ELK1 is 0.993; with SPIC, 0.976; with ETS2, 0.976; in the assay with ETV3, 1.03.

For GATAAG, the binding signal with ELK1 stood at 0.888; in the assay with SPIC, 0.948; with ETS2 it was 0.905; in the assay with ETV3 it was 0.865.

For GGCTTA, the binding signal in the assay with ELK1 worked out at 0.967; in the assay with SPIC, 0.944; with ETS2 it was 1.09; in the assay with ETV3, 1.05.

As for AACTGT, the binding signal with ELK1 was 0.889; in the assay with SPIC it was 0.98; with ETS2, 0.951; with ETV3, 0.955.

In the case of TACGGG, the binding signal was determined as 0.892 with ELK1; 0.863 in the assay with ELK3; 0.993 with SPIC; 0.891 with ETS2; 0.907 with ETV3.

For AGATAT, the binding signal with ELK1 came out at 0.981; with SPIC, 0.963; in the assay with ETS2, 0.978; in the assay with ETV3, 0.981.

For the sequence TCTGGA, the binding signal in the assay with ELK1 was 0.995; with SPIC, 0.839; with ETS2, 0.971; in the assay with ETV3, 1.05.

Regarding GTGCAC, the binding signal with ELK1 turned out to be 0.922; in the assay with ELK3, 0.894; with SPIC, 0.997; with ETS2, 0.898; with ETV3 it was 0.968.

Regarding CTCGGG, the binding signal with ELK1 amounted to 0.994; with SPIC it was 0.816; with ETS2 it was 0.953; with ETV3, 1.

As for GTATGT, the binding signal in the assay with ELK1 worked out at 0.972; with SPIC, 0.919; with ETS2 it was 0.999; in the assay with ETV3, 0.952.

With TGAAGA, the binding signal was 0.973 with ELK1, 1.01 in the assay with SPIC, 0.989 in the assay with ETS2 and 0.93 in the assay with ETV3.

In the case of TCATCG, the binding signal with ELK1 was 0.955; with SPIC it was 1.05; with ETS2 it was 0.949; with ETV3 it was 0.928.

For the sequence TGGGAA, the binding signal with ELK1 was 1.08; with SPIC, 1.03; in the assay with ETS2, 1.02; in the assay with ETV3, 0.979.

For the sequence GACCCC, the binding signal in the assay with ELK1 stood at 0.951; in the assay with ELK3, 0.906; with SPIC, 0.841; with ETS2, 0.893; with ETV3 it was 0.926.

With TTCGCA, the binding signal with ELK1 turned out to be 1.36; with SPIC, 1.32; in the assay with ETS2, 1.18; with ETV3, 1.34.

Regarding GGATTC, the binding signal with ELK1 turned out to be 0.836; with ELK3 it was 0.997; with SPIC, 0.894; with ETS2, 0.97; with ETV3 it was 0.997.

Consider CGGCAA, for which the binding signal with ELK1 is 0.881; with ELK3, 0.938; in the assay with SPIC, 0.817; with ETS2 it was 0.915; with ETV3 it was 0.953.

Turning to CCCGTA, the binding signal with ELK1 came to 1.11; in the assay with SPIC it was 1.31; in the assay with ETS2 it was 1.2; with ETV3, 1.21.

As to TAAGGA, the binding signal in the assay with ELK1 was determined as 0.855; with ELK3, 0.951; in the assay with SPIC, 0.917; in the assay with ETS2, 0.881; with ETV3, 0.953.

For CATAGC, the binding signal with ELK1 stood at 0.971; in the assay with ELK3, 0.964; in the assay with SPIC it was 0.769; with ETS2, 0.963; with ETV3, 0.972.

Turning to CCAGAA, the binding signal was found to be 0.886 in the assay with ELK1, 0.948 with SPIC, 0.986 with ETS2 and 0.949 in the assay with ETV3.

As to TGAACG, the binding signal with ELK1 is 0.96; with SPIC, 0.974; in the assay with ETS2, 0.997; in the assay with ETV3, 0.982.

As to AGTTTA, the binding signal in the assay with ELK1 came to 0.981; with SPIC, 0.947; with ETS2 it was 0.961; in the assay with ETV3, 0.985.

As for GGCGTT, the binding signal with ELK1 amounted to 0.994; in the assay with SPIC, 1.08; in the assay with ETS2, 0.907; in the assay with ETV3 it was 0.901.
